# Reference: PubChem BioAssay AID2685 (National Center for Advancing Translational Sciences (NCATS), 2010)
# This is one part of the list. The main result of the screen is listed elsewhere. These columns were measured beside it and carry no call. Compounds called inactive in the main read-out are mostly missing here. Potencies come from curve fits of mixed quality, noted in brackets.
# Test: qHTS Assay for Lipid Storage Modulators in Drosophila S3 Cells;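 on cell number change: cells counted by Cell Tracker Red CMTPX staining in the red channel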
# Conditions: BODIPY lipid droplet fluorescence, 18-24 h; for cell number change: measured here: cell count max response, cells fed with added oleic acid
# In short: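 Laser-scanning cytometry quantifies lipid droplet accumulation (500–530 nm total intensity; droplet/cell object ratio) in oleic acid-fed (400 uM added) Drosophila S3 cells treated with a concentration series. 20 uM Triacsin C defined 100% inhibition.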
# [1] = measured here: lipid fluorescence (Fed channel) AC50, cells fed with added oleic acid
# [2] = measured here: cell number channel AC50, cells fed with added oleic acid
SMILES,cell number change [%],AC50 [1],AC50 [2]
COc1ccc(-c2c3c(nc4sc5c(=O)[nH]c(C)nc5c24)CCC3)cc1,-10.8,"1.3 µM [rising, partial curve]",
CC1(C)C(=O)OC(C(=O)c2ccccc2)C(C)(C)C1=O (stereo not drawn),3.5,"0.146 µM [rising, full curve, poor fit]",
Cc1cc2c(cc(C(=O)O)n2C)s1,8.85,"4.61 µM [falling, full curve, poor fit]",
CN(C)c1cc[n+](/C(C(=S)Nc2ccc(SC(F)F)cc2)=C(/[O-])c2ccccc2)cc1,-9.34,"6.51 µM [rising, single point]","6.51 µM [rising, single point]"
CCOC(=O)c1[nH]c2ccc(Br)cc2c1NC(=O)CCN1CCCC(C)(C)C1,15.4,"29.1 µM [rising, single point]",
COc1cc(/C=N/n2nnnc2Nc2ccccc2)cc(OC)c1OC,9.94,"1.03 µM [rising, full curve, poor fit]",
CCOC(=O)Cc1csc(NC(=O)COc2cccc(C)c2)n1,,,"0.00461 µM [rising, full curve, poor fit]"
Cc1nn(C)cc1C(C(=O)NC1CCCCC1)N(C(=O)Cc1cccs1)c1ccc(F)cc1 (stereo not drawn),-5.5,"8.2 µM [falling, partial curve, poor fit]","1.03 µM [rising, partial curve]"
CC(C)Cn1c(CN2CCN(C)C(CCO)C2)nc2ccccc21 (stereo not drawn),15.3,"0.164 µM [rising, full curve, poor fit]",
CCc1ccccc1NC(=O)CCN1C(=O)c2ccccc2C1=O,,"4.11 µM [rising, full curve, poor fit]","0.326 µM [rising, full curve, poor fit]"
CC(C)CNC(=O)c1cccc(NC(=O)C(C)Oc2ccccc2)c1 (stereo not drawn),-30.3,,"29.1 µM [falling, single point]"
CCc1nc2ccccc2c(C(=O)OCC(=O)C(C)(C)C)c1C,11.2,,
Cc1ccc(N2CC(C(=O)N(C)CC(=O)Nc3ccc(Cl)c(C(F)(F)F)c3)CC2=O)cc1 (stereo not drawn),-45.4,"18.4 µM [falling, single point]","20.6 µM [falling, single point]"
CC(C)c1ccc(NC(=O)C2CCN(S(=O)(=O)c3ccc4c(c3)NC(=O)CO4)CC2)cc1,-12.5,"0.13 µM [rising, full curve, poor fit]","2.31 µM [rising, partial curve]"
O=C1Nc2ccccc2/C1=N/N=C/c1cccc(O)c1,8.06,,"3.26 µM [falling, single point]"
COc1ccc(-c2noc(CNS(=O)(=O)c3ccccc3)n2)cc1,29.9,"35.5 µM [rising, single point]",
CCOC(=O)C1CCN(C2CCN(Cc3nc(-c4ccccc4)no3)CC2)CC1,-6.12,"3.26 µM [falling, full curve, poor fit]",
CC1(C)C(C=C(Cl)Cl)C1C(=O)OCc1cccc(Oc2ccccc2)c1 (stereo not drawn),36.1,"4.61 µM [rising, partial curve, poor fit]",
CC1CCCC(NC(=O)c2n[nH]c(=O)c3ccccc23)C1C (stereo not drawn),8.62,"6.51 µM [rising, partial curve]","6.51 µM [rising, partial curve, poor fit]"
Cc1cc(C(=O)COc2ccccc2C(N)=O)c(C)n1C,30.3,,"29.1 µM [rising, single point]"
COc1ccc(CNC(=O)c2cc(SC)ccc2Cl)cc1OC,10.5,"0.164 µM [rising, full curve]",
Cc1ccc(C)[n+](CC(=O)c2ccc(-c3ccccc3)cc2)c1,-38.3,"18.4 µM [falling, single point]","23.1 µM [falling, single point]"
COc1ccc(OC)c(NC(=O)CCC(=O)Nc2nnc(C(F)(F)F)s2)c1,50.6,,"18.4 µM [rising, partial curve]"
Cc1cccc(-c2oc3ccc(-c4ccc5c(c4)OCO5)cc3c2C(=O)OCc2ccc(O)cc2)c1,32.6,,"1.64 µM [rising, partial curve, poor fit]"
Cn1cnnc1SCC(=O)NCCc1ccccc1,25.1,,
C/C(=N\NC(=O)c1nnn(-c2nonc2N)c1-c1cccs1)c1cccnc1,7.31,,"4.11 µM [rising, single point]"
COc1cc(OC)cc(-c2c(-c3ccc(F)cc3)c3cc(-c4ccc5cc[nH]c5c4)ccc3n2C)c1,10,"0.517 µM [rising, single point]","6.51 µM [falling, single point]"

# Arranged by number of heavy atoms (falling): some entries from above
SMILES,cell number change [%],AC50 [1],AC50 [2]
CC(C)c1ccc(NC(=O)C2CCN(S(=O)(=O)c3ccc4c(c3)NC(=O)CO4)CC2)cc1,-12.5,"0.13 µM [rising, full curve, poor fit]","2.31 µM [rising, partial curve]"
C/C(=N\NC(=O)c1nnn(-c2nonc2N)c1-c1cccs1)c1cccnc1,7.31,,"4.11 µM [rising, single point]"
COc1ccc(CNC(=O)c2cc(SC)ccc2Cl)cc1OC,10.5,"0.164 µM [rising, full curve]",
